Results are given in words; binding and its absence hold for the method and conditions named. Binding seen in cells or lysates may run through a third protein. Some entries that bind do so weakly or less than the wild type. Sequences can lack the tags named with a protein.
T1: Myc-tagged Bcy1 (chromosomal BCY1 epitope tagged with nine Myc epitopes) (S. cerevisiae) (UniProt P07278)
T1 sequence: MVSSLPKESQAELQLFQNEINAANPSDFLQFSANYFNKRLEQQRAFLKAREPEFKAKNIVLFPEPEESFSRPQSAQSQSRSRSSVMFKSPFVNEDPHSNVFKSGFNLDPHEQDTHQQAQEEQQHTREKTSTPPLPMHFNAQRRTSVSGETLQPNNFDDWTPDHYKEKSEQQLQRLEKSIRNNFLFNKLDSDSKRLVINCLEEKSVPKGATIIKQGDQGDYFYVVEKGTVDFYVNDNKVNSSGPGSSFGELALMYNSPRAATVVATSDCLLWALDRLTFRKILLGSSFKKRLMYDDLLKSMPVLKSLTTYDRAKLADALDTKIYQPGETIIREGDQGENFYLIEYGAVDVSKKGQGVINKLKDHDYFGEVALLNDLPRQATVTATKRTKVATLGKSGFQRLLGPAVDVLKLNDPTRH


These binders were tested against T1, Myc-tagged Bcy1 (chromosomal BCY1 epitope tagged with nine Myc epitopes) (S. cerevisiae) (assay: co-IP; Bcy1-Myc precipitated with anti-c-Myc magnetic beads from a tsa1 deletion strain expressing untagged Tsa1 versions; lysis with 50 mM N-ethylmaleimide; wash buffer 500 mM NaCl, 20 mM Tris-HCl pH 8.0, 2 mM MgCl2, 0.5% NP40; Tsa1 detected with anti-Tsa1; non-stress, AZC (5 mM) or hydrogen peroxide (0.4 mM) for 2 h; also in a strain deleted for TPK1).

| binding | Binder |
| --- | --- |
| binds | untagged wild-type Tsa1 (enzyme, UniProt P34760 1-196) MVAQVQKQAPTFKKTAVVDGVFDEVSLDKYKGKYVVLAFIPLAFTFVCPTEIIAFSEAAKKFEEQGAQVLFASTDSEYSLLAWTNIPRKEGGLGPINIPLLADTNHSLSRDYGVLIEEEGVALRGLFIIDPKGVIRHITINDLPVGRNVDEALRLVEAFQWTDKNGTVLPCNWTPGAATIKPTVEDSKEYFEAANK |
| binds | untagged Tsa1 resolving cysteine residue mutant (Tsa1-C171S) (enzyme, UniProt P34760 1-196) MVAQVQKQAPTFKKTAVVDGVFDEVSLDKYKGKYVVLAFIPLAFTFVCPTEIIAFSEAAKKFEEQGAQVLFASTDSEYSLLAWTNIPRKEGGLGPINIPLLADTNHSLSRDYGVLIEEEGVALRGLFIIDPKGVIRHITINDLPVGRNVDEALRLVEAFQWTDKNGTVLPSNWTPGAATIKPTVEDSKEYFEAANK |
| binds | untagged Tsa1 peroxidatic cysteine residue mutant (Tsa1-C48S) (enzyme, UniProt P34760 1-196) MVAQVQKQAPTFKKTAVVDGVFDEVSLDKYKGKYVVLAFIPLAFTFVSPTEIIAFSEAAKKFEEQGAQVLFASTDSEYSLLAWTNIPRKEGGLGPINIPLLADTNHSLSRDYGVLIEEEGVALRGLFIIDPKGVIRHITINDLPVGRNVDEALRLVEAFQWTDKNGTVLPCNWTPGAATIKPTVEDSKEYFEAANK |
